No constants are given. Whether binding was seen depends on the method and setting. In cells and extracts the contact can be indirect. Some results given as binding are weak or reduced against the parent protein; the word gives no strength. Sequences can lack the tags named with a protein. Values belong to the molecule of their own block, whether it stands above or below them.
What was measured:
[1] = target: T1, Flag-tagged Prohibitin 1 (PHB1) (UniProt P35232); assay: co-IP; Myc-tagged TRIM21 and Flag-tagged PHB1 transiently over-expressed in CNE1 cells, harvested 48 h post-transfection; IP with antibody to Flag or Myc-tag; normal mouse IgG as control
T1 sequence: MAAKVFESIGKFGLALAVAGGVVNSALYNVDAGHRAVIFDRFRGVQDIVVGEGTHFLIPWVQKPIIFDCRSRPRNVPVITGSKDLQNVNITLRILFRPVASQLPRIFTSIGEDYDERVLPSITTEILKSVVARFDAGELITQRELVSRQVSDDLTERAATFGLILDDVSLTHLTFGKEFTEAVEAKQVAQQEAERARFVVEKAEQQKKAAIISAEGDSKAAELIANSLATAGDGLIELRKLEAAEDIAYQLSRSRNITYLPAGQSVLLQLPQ

Chains of the proteins cited; added tags and fusions are not shown.
UniProt P19474: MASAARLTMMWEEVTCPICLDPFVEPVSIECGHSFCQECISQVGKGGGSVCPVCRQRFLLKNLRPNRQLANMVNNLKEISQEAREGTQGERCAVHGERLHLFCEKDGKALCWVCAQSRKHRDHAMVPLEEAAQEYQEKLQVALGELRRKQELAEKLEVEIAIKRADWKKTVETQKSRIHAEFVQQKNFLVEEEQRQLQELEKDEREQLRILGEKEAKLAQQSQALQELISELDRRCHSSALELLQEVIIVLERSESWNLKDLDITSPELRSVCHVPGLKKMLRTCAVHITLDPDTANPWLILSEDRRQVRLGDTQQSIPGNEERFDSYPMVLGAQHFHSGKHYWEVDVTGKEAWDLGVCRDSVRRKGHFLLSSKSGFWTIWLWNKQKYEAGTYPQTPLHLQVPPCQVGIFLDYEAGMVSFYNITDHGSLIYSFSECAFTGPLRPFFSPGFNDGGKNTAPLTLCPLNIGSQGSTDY

[2] = target: T1, Flag-tagged Prohibitin 1 (PHB1); assay: co-IP; flag-tagged PHB1, myc-tagged LPLUNC1 and his-tagged TRIM21 co-expressed in CNE1 cells; IP with anti Flag antibody, IB for LPLUNC1 and TRIM21
[3] = target: T1, Flag-tagged Prohibitin 1 (PHB1); assay: as above; remark: listed apart in the source
[4] = target: T1, Flag-tagged Prohibitin 1 (PHB1); assay: co-IP; HNE1 and CNE1 cells co-transfected with Flag-PHB1 and Myc-LPLUNC1; IP with anti-Flag or anti-myc antibody; normal mouse IgG as negative control; lysis in RIPA buffer

binding [1]: binds
Molecule: Myc-tagged TRIM21 (from UniProt P19474 1-475) (enzyme)

binding [2]: binds weakly
Molecule: his-tagged TRIM21 (from UniProt P19474 1-475) (enzyme)

binding [3]: binds
binding [4]: binds
B1: Myc-tagged long palate, lung and nasal epithelium clone 1 (LPLUNC1) (protein, UniProt Q8TDL5 22-484)
chain: TLSPTAVLILGPKVIKEKLTQELKDHNATSILQQLPLLSAMREKPAGGIPVLGSLVNTVLKHIIWLKVITANILQLQVKPSANDQELLVKIPLDMVAGFNTPLVKTIVEFHMTTEAQATIRMDTSASGPTRLVLSDCATSHGSLRIQLLHKLSFLVNALAKQVMNLLVPSLPNLVKNQLCPVIEASFNGMYADLLQLVKVPISLSIDRLEFDLLYPAIKGDTIQLYLGAKLLDSQGKVTKWFNNSAASLTMPTLDNIPFSLIVSQDVVKAAVAAVLSPEEFMVLLDSVLPESAHRLKSSIGLINEKAADKLGSTQIVKILTQDTPEFFIDQGHAKVAQLIVLEVFPSSEALRPLFTLGIEASSEAQFYTKGDQLILNLNNISSDRIQLMNSGIGWFQPDVLKNIITEIIHSILLPNQNGKLRSGVPVSLVKALGFEAAESSLTKDALVLTPASLWKPSSPVSQ

Source: paper PMC6756001
